Results reported in patent US20080226579A1, “Novel Resinate Complex of S-Clopidogrel and Production Method Thereof” (Chong Kun Dang Pharmaceutical Corp., priority 2005, published 2008).
Where a name gives a salt, the structure may show the parent alone.

Assay: Sensory test of five volunteers: comparison of taste and mucosal irritation
Conditions: 75 mg as free base; for taste and irritation in the mouth (text summary of Table 1): solid form; for Bitterness / Sour taste: solid form containing no excipient, water or solvent

Molecule | taste and irritation in the mouth (text summary of Table 1) | Bitterness | Sour taste
COC(=O)[C@H](c1ccccc1Cl)N1CCc2sccc2C1 [Clopidogrel hydrogen sulfate, reference compound] | bitter and obnoxious taste | Sustained | Very severe
Methyl(+)-(S)-(2-chlorophenyl)(6,7-dihydro-4H-thieno[3,2-c]pyridine-5-yl)acetate-styrene sulfonate polymer complex [Example 2] | did not induce irritation or bitterness in the mouth but with some mild sour taste or no taste | No | Very mild
Methyl(+)-(S)-(2-chlorophenyl)(6,7-dihydro-4H-thieno[3,2-c]pyridine-5-yl)acetate-styrene sulfonate polymer complex [Example 9] | did not induce irritation or bitterness in the mouth but with some mild sour taste or no taste | No | Little taste
